{
  "source": "PubChem BioAssay AID504444",
  "about": "(National Center for Advancing Translational Sciences (NCATS), 2011)",
  "note": "Among all 360,000 compounds or so, about 7,500 (2.1%) were called active. Inconclusive means that the source gave no clear call. Such entries were picked first, then a sample of the others. Calls follow the shape of the dose curve; as a rule, active = well fitted inhibition curve with a large enough effect; inconclusive = small, poorly fitted or top-dose-only effect, or effect the other way; inactive = flat fitted curve, though single readings scatter. Where the call is inconclusive, the potency comes from a doubtful curve fit. % is scaled to controls: 0 for no effect and ±100 for the full control effect; potency is read from the fitted curve at half-maximal effect.",
  "data": [
    {"assay": "Nrf2 qHTS screen for inhibitors; also: nearly all actives have a fitted effect of over 60% in size", "details": "A549 ARE-Fluc reporter, luciferase luminescence, 18-24 h; activity change, negative = inhibition: at 46 µM (top of the series)", "method_in_brief": "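In this cell-based qHTS, ARE-driven firefly luciferase in A549 cells reports Nrf2 activity; the luminescent signal after BugLite lysis is the measured value, with a prior CellTiter-Fluor read for cell health.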", "values": [
      {"smiles": "N#Cc1c(N)c(C#N)c(-c2ccc3c(c2)OCO3)c2c1CCCC2", "Potency": "inactive"},
      {"smiles": "COC(=O)c1ccc(COc2ccc(CNCc3ccc(Cl)cc3)cc2)cc1", "Potency": "inconclusive: 3.26 µM [activator, full curve]"},
      {"smiles": "CCOc1ccccc1NC(=S)N(CCC(C)C)C1CCN(C(C)=O)CC1", "Potency": "inconclusive: 25.9 µM [activator, single point]"},
      {"smiles": "Cc1cccc(NC(=O)c2oc(=O)c3ccccc3c2-c2ccccc2)c1C", "Potency": "inconclusive: 20.6 µM [falling, single point]"},
      {"smiles": "COc1ccccc1CNC(=O)CCC1N=C2c3ccccc3N=C(SCc3cccc(Cl)c3)N2C1=O", "note": "(configuration not stated)", "activity change, negative = inhibition": "inactive: 8.9% [at 9.27 µM]"},
      {"smiles": "Cc1ccc(-c2nc3ccccc3c(=O)o2)cc1", "Potency": "inconclusive: 5.17 µM [activator, partial curve, poor fit]"},
      {"smiles": "COc1ccccc1NC(=S)NC1CCCCCC1", "Potency": "inconclusive: 4.11 µM [falling, partial curve, poor fit]"},
      {"smiles": "N#CC(c1ccccn1)c1ncc(C(F)(F)F)cc1Cl", "note": "(configuration not stated)", "Potency": "inactive"},
      {"smiles": "Cc1cccc(C)c1NC(=O)CNC(=O)CCC(=O)c1cccs1", "Potency": "inactive"},
      {"smiles": "Cc1ccc(NC(=S)N(C)N)cc1Cl", "Potency": "inactive"},
      {"smiles": "CCN(C(=O)CCn1cnc2onc(-c3ccc(F)cc3)c2c1=O)c1ccc(OC)cc1", "Potency": "inconclusive: 2.91 µM [falling, full curve]"},
      {"smiles": "CCN1CCCC1CN(Cc1cc2ccc(C)c(C)c2[nH]c1=O)C(=O)Nc1ccccc1OC", "note": "(configuration not stated)", "Potency": "inconclusive: 7.31 µM [activator, full curve, poor fit]"},
      {"smiles": "CC1(C)c2[nH]c3ccccc3c2C[C@H]2C(=O)N(Cc3ccccc3)C(=O)N21", "Potency": "inconclusive: 29.1 µM [falling, single point]"},
      {"smiles": "CCOC(=O)c1c(NC(=O)CSc2nc3ccc(OC)cc3[nH]2)sc2c1CC(C)(C)NC2(C)C", "Potency": "inconclusive: 29.1 µM [falling, single point]"},
      {"smiles": "COC(=O)c1ccc2c(=O)n(-c3ccccc3F)c(=S)[nH]c2c1", "Potency": "inactive"},
      {"smiles": "CC(CCc1ccccc1)NC(=O)c1ccc(NC(=O)c2cccc(Br)c2)cc1", "note": "(configuration not stated)", "Potency": "inconclusive: 3.26 µM [falling, partial curve, poor fit]"},
      {"smiles": "c1ccc(-c2noc(CN3CCOCC3)n2)cc1", "Potency": "inconclusive: 8.2 µM [activator, partial curve]"},
      {"smiles": "COC(=O)c1cccc(Oc2cccc(Cl)n2)c1", "Potency": "inactive"},
      {"smiles": "Cc1nc(-c2ccccc2)sc1-c1nc(-c2ccccc2)ncc1S(=O)(=O)c1ccccc1", "Potency": "inconclusive: 10.3 µM [falling, partial curve]"},
      {"smiles": "C[C@H](NC(=O)[C@@H]1CSC2c3ccccc3C(=O)N21)C(=O)NC1CCCCC1", "note": "(some centres not stated)", "Potency": "inconclusive: 10.3 µM [falling, partial curve, poor fit]"},
      {"smiles": "CN=C1S/C(=C\\c2cc(C)n(-c3ccccc3F)c2C)C(=O)N1C", "Potency": "inconclusive: 2.59 µM [activator, single point]"},
      {"smiles": "Cc1ccc(NC(=O)Nc2ccc3c(c2)OCO3)c(OC(F)F)c1", "Potency": "inconclusive: 6.51 µM [activator, partial curve]"},
      {"smiles": "CC[N+]1(CC)CC2=Cc3c(ccc4ccccc34)C(C)C2C1", "note": "(configuration not stated)", "Potency": "inconclusive: 6.51 µM [falling, partial curve, poor fit]"},
      {"smiles": "Cc1ccccc1OCc1nnc(SCCN2CCCC2)n1-c1ccccc1", "Potency": "inconclusive: 29.1 µM [falling, single point]"},
      {"smiles": "COc1ccc(N2CCN(S(=O)(=O)CCNC(=O)C34CC5CC(CC(C5)C3)C4)CC2)cc1", "Potency": "inconclusive: 20.6 µM [falling, partial curve, poor fit]"},
      {"smiles": "CC(C)c1ccc(NC(=O)c2cccc3c2C(=O)N(C2CCCCC2)C3)cc1", "Potency": "inconclusive: 18.4 µM [activator, partial curve, poor fit]"},
      {"smiles": "CCCc1nc2ccccc2n2c(-c3ccc(C)cc3)c3c(=O)n(C)c(=O)n(C)c3c12", "Potency": "inactive"},
      {"smiles": "Cc1cc(/C=N/NC(=O)c2cccc([N+](=O)[O-])c2)c(C)n1-c1ccccc1", "Potency": "inconclusive: 10.3 µM [activator, partial curve]"},
      {"smiles": "CC(=O)c1ccc(N/N=C(/C(N)=O)C2=NC(C)(C)Cc3ccccc32)cc1", "Potency": "inconclusive: 9.2 µM [falling, partial curve, poor fit]"},
      {"smiles": "COc1ccc(OCC2CCCN(Cc3nc(CC4CC4)no3)C2)cc1", "note": "(configuration not stated)", "Potency": "inconclusive: 29.1 µM [activator, single point]"},
      {"smiles": "Cc1ccc(-c2nsc3c(N4CCC(C(N)=O)CC4)ncnc23)cc1", "Potency": "inconclusive: 3.66 µM [activator, full curve]"},
      {"smiles": "CC(=O)Nc1cc(C(=O)c2ccccc2)ccc1N1CCOCC1", "Potency": "inconclusive: 0.326 µM [falling, full curve, poor fit]"},
      {"smiles": "CC(=O)c1cccc(NC(=O)c2c(N3CCCC3=O)c3cc(F)ccc3n2C)c1", "Potency": "inconclusive: 14.6 µM [activator, single point]"},
      {"smiles": "Cc1cccc(C(=O)NC(=S)Nc2ccccc2C(F)(F)F)c1", "Potency": "inactive"},
      {"smiles": "Fc1ccc(C2Nc3cccc4cccc(c34)N2)cc1", "Potency": "inconclusive: 2.59 µM [activator, single point]"},
      {"smiles": "Cn1cnc([N+](=O)[O-])c1Sc1nnc(-c2cccnc2)n1C", "Potency": "inactive"},
      {"smiles": "O=C(CSS(=O)(=O)O)N1CCN(C(=O)c2ccoc2)CC1", "Potency": "inconclusive: 29.1 µM [falling, partial curve, poor fit]"},
      {"smiles": "CC(=O)c1ccc2noc(-c3ccccc3)c2c1", "Potency": "inconclusive: 9.2 µM [activator, partial curve, poor fit]"},
      {"smiles": "CCOC(=O)c1sc(NC(=O)c2cccs2)cc1C", "Potency": "inconclusive: 8.2 µM [activator, partial curve, poor fit]"},
      {"smiles": "COc1ccc(-n2nc(C(=O)NCC(=O)NCCCN3CC(C)CC(C)C3)c3ccccc3c2=O)cc1", "note": "(configuration not stated)", "Potency": "inactive"},
      {"smiles": "Cc1cccc(N2CCN(C(=O)c3cnn(-c4cccc(Cl)c4C)c3C3CCNCC3)CC2)c1C", "Potency": "inconclusive: 6.51 µM [falling, single point]"},
      {"smiles": "CC(C)c1ccc(OCc2ccc(C(=O)N3CCCC3)o2)cc1", "Potency": "inconclusive: 0.92 µM [activator, full curve, poor fit]"}
    ]}
  ]
}
